{"source": "paper PMC9279153", "about": "“Structure of the Dicer-2–R2D2 heterodimer bound to a small RNA duplex”", "key": {"[1]": {"target": "T1, 3×Flag-tagged R2D2 (residues 1–311) (Drosophila) (UniProt Q9VLW8)", "T1 sequence": "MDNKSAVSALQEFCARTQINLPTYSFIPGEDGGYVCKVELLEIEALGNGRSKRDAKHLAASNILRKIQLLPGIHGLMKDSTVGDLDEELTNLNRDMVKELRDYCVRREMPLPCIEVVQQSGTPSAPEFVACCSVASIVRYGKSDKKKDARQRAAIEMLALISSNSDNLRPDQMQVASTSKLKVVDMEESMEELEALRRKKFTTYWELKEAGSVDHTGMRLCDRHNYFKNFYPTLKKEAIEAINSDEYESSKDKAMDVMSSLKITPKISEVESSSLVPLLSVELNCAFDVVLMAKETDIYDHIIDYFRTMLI", "test": "cryo-EM structure; Dicer-2–R2D2 heterodimer without RNA, co-purified from Sf9; 30 mM Hepes-KOH pH 7.4, 100 mM KCl, 2 mM MgCl2, 1 mM DTT, 0.02% glycerol; 3.3 Å; both purified"}, "[2]": {"target": "T1, 3×Flag-tagged R2D2 (residues 1–311) (Drosophila)", "test": "pull-down; 8×His–Dicer-2 (wild type or mutant) and 3×Flag–R2D2 co-expressed in Sf9; lysate on anti-Flag M2 magnetic beads 1 h; wash with 800 mM NaCl, 1% Triton-X 100; western blot with anti-Flag and anti-Dicer-2 antibodies; n = 3"}, "[3]": {"target": "T1, 3×Flag-tagged R2D2 (residues 1–311) (Drosophila)", "test": "cryo-EM structure; Dicer-2–R2D2 co-purified from Sf9, mixed 1:2 with let-7 siRNA duplex and purified by gel filtration; 30 mM Hepes-KOH pH 7.4, 100 mM potassium acetate, 2 mM magnesium acetate, 1 mM DTT, 0.02% glycerol; 3.3 Å; both purified"}}, "note": "These are yes or no findings as the source states them, for the method shown. For some of these results: Binding seen in cells or lysates may run through a third protein. Some binding calls cover weakened binding; strength is not graded here. Tags and fused reporters may be left off the sequences shown."}
{"substance": "Dicer-2 (residues 1–1722), 8×His–GFP tag removed by TEV protease (from UniProt A1ZAW0 1-1722) (enzyme)", "values": [{"measurement": "binding", "setting": "[1]", "result": "binds"}]}
{"substance": "8×His-tagged Dicer-2 (residues 1–1722), wild type (from UniProt A1ZAW0 1-1722) (enzyme)", "values": [{"measurement": "binding", "setting": "[2]", "result": "binds"}, {"measurement": "binding", "setting": "[3]", "result": "binds"}]}
{"substance": "8×His-tagged Dicer-2 Δ1082–1115 (E1081-GGGS-G1116 mutant, truncated central linker) (from UniProt A1ZAW0 1-1081; A1ZAW0 1116-1722) (enzyme)", "values": [{"measurement": "binding", "setting": "[2]", "result": "binds"}]}
